In article PMC7819943, “Rice protein-binding microarrays: a tool to detect cis-acting elements near promoter regions in rice”:
Some of the results follow.

Sequences of proteins named here, by UniProt entry; tags and fusion partners are left off.
UniProt Q0JBA9, entry or part of it: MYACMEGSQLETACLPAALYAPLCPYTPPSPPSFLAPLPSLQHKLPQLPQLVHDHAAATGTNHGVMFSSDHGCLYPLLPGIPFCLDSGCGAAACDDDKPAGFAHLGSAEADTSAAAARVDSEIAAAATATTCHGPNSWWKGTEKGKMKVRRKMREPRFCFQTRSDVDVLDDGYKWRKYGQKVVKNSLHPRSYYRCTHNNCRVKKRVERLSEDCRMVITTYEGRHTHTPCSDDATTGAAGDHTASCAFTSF

Biological target: OsWRKY34 (Oryza sativa, UniProt Q0JBA9 1-250)
Assay: protein-binding microarray (RPBM); PBS, 2% BSA, 51.3 ng/ul salmon testes DNA, 50 uM zinc acetate, 200 nM TF, 25 C, 1 h; high values mean tight binding
Conditions: protein: recombinant; tags: N-terminal polyhistidine and DsRed monomer fusion (pET32a); label: CyDye5-dUTP incorporated in the synthesized complementary strand; 3' TTTTT single-stranded linker to array surface; dsDNA, one strand shown
Procedure, shortened: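 Transcription factors were each fused at the N-terminus to a polyhistidine tag plus DsRed and expressed in E. coli BL21-CodonPlus before Ni–NTA purification. Binding to a double-stranded custom Agilent array was carried out with 200 nM protein at 25 °C for 1 h in PBS, 2% BSA, salmon testes DNA and 50 µM zinc acetate. The binding signal is per-feature fluorescence intensity, in arbitrary units, on an Axon 4000B scanner.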

| Sequence | binding signal |
| --- | --- |
| GCTGATTACATCCGTCTCACTTTGACCATGGATTACTTTTCGGAGTCACCTAGTGCAG | 10700 fluorescence intensity (a.u.) |
| ACGACCACGCCGCCCGCCGATCCTCCATCGCCGCCTTCACCGGAGTCACCTAGTGCAG | 9300 fluorescence intensity (a.u.) |
| CACGTTCGCTCTCATGGCCTAGAAATTCTCACATTAATCACGGAGTCACCTAGTGCAG | 9110 fluorescence intensity (a.u.) |
| AATCAGATGGAGAGTTGGTTATATGGGTGTTTGGAGAGTTCGGAGTCACCTAGTGCAG | 8410 fluorescence intensity (a.u.) |
| CTCCTCCTCCCTGCGGCTTCTTCTTCGCCATAACGCCATGCGGAGTCACCTAGTGCAG | 8540 fluorescence intensity (a.u.) |
| GGGGAGGCGGGGTGGCGGGAGGGAAGGCGGCGGCGGCGCCCGGAGTCACCTAGTGCAG | 12700 fluorescence intensity (a.u.) |
| GATAATTTGTTTGTTCTCCGAAATTACCAAACTGTCCTTTCGGAGTCACCTAGTGCAG | 9900 fluorescence intensity (a.u.) |
| GATTTTCTGTTTCACATCTTGTTGTTTGAACCTATGTGTGCGGAGTCACCTAGTGCAG | 9150 fluorescence intensity (a.u.) |
| AACTCGTGGCTCTCGTCCCATTCCCACGCTTGCGCAAGCGCGGAGTCACCTAGTGCAG | 9720 fluorescence intensity (a.u.) |
| CGCCGGCGTCCCTTCGTCCTCGCCACCGGCGTCGAGCTTCCGGAGTCACCTAGTGCAG | 12100 fluorescence intensity (a.u.) |
| CTGTCACCGTCACATCCGATGGATAGAGCAACCATTTCCTCGGAGTCACCTAGTGCAG | 9300 fluorescence intensity (a.u.) |
| CATCCATCGTATCCACCGCCGTCGCCTTCCATCCTCCCCGCGGAGTCACCTAGTGCAG | 8040 fluorescence intensity (a.u.) |
| CATCTGCTCGAACTTCTCTCCTCTCCCACGATGAACCCTACGGAGTCACCTAGTGCAG | 9060 fluorescence intensity (a.u.) |
| ATGTCCCTTTTTGTCATTAGTCATCACCCAAAAGAAACCACGGAGTCACCTAGTGCAG | 8240 fluorescence intensity (a.u.) |
| CCGCCGCCAGTTCGTCGTCGTCTCGTCCCCTTTCCTTCCTCGGAGTCACCTAGTGCAG | 8720 fluorescence intensity (a.u.) |
| GCCCTCGCGCACTCCACCGCCGCCGCCGCCTCTCGTCTCCCGGAGTCACCTAGTGCAG | 13200 fluorescence intensity (a.u.) |
| CACCGTCTCCGCTTCCCTCGCGTCCTCTTGTCCTCACGCACGGAGTCACCTAGTGCAG | 8330 fluorescence intensity (a.u.) |
| ATGTTTACTTGTACTAACCGGTTGAGATTGCAATATTTTACGGAGTCACCTAGTGCAG | 8320 fluorescence intensity (a.u.) |
| AATTGTGGGCAGGTTTGCATCGCTGGTCCAGCAGCTTTGACGGAGTCACCTAGTGCAG | 8320 fluorescence intensity (a.u.) |
| CCCTCCATCCTATACTGTTAATATCCAATATTTGACCGTTCGGAGTCACCTAGTGCAG | 8800 fluorescence intensity (a.u.) |
| CTATTTTGCGTCCCTCATTTCTTACCTGCGATCTCATTGGCGGAGTCACCTAGTGCAG | 10100 fluorescence intensity (a.u.) |

Copied from the list:
Value for AATCAGATGGAGAGTTGGTTATATGGGTGTTTGGAGAGTTCGGAGTCACCTAGTGCAG under binding signal: 8410 fluorescence intensity (a.u.)
Value for ACGACCACGCCGCCCGCCGATCCTCCATCGCCGCCTTCACCGGAGTCACCTAGTGCAG under binding signal: 9300 fluorescence intensity (a.u.)
Value for ATGTTTACTTGTACTAACCGGTTGAGATTGCAATATTTTACGGAGTCACCTAGTGCAG under binding signal: 8320 fluorescence intensity (a.u.)

More records.

| Sequence | binding signal |
| --- | --- |
| CGTCGATCAAATCATCCATCCATCCATCTAGAACACGATGCGGAGTCACCTAGTGCAG | 12900 fluorescence intensity (a.u.) |
| TCACGTTCAACGTTTGACTGTTCGTCTTATTTAAAATTTTCGGAGTCACCTAGTGCAG | 8400 fluorescence intensity (a.u.) |
| ACCTACAAATCTCATCATCTCATCAATATCCATTTCTACACGGAGTCACCTAGTGCAG | 10700 fluorescence intensity (a.u.) |
| TATTAATGGCCTTACATCTATCTTGTATCGTAGTATTACCCGGAGTCACCTAGTGCAG | 11900 fluorescence intensity (a.u.) |
| TCAATGCCAACAACAAACTTCATTTTGCTACCTTAGCTTCCGGAGTCACCTAGTGCAG | 9110 fluorescence intensity (a.u.) |
| TGGTTTTGGCAGCTGCTGTGTGCACTTGTGGGTTTTTTCTCGGAGTCACCTAGTGCAG | 8960 fluorescence intensity (a.u.) |
| CTTAATTGTAAATCGTTACAGTTTGTTGTCATTTCATTTCCGGAGTCACCTAGTGCAG | 10600 fluorescence intensity (a.u.) |
| ACCTTAATTAATTAATCTTGTTTTCTCATGGAGTTGTCATCGGAGTCACCTAGTGCAG | 10400 fluorescence intensity (a.u.) |
| GAATGGTCAAATATGTGAGAAAAAGTCAACGGCGTCATTTCGGAGTCACCTAGTGCAG | 14400 fluorescence intensity (a.u.) |
| AATCCTATGTTTTTTCTATTCCTCCGTTTTTTTAACCCTGCGGAGTCACCTAGTGCAG | 8710 fluorescence intensity (a.u.) |
| CGAGCCTAGCCCCACCACCTAGATGCTACTTTGATCAACCCGGAGTCACCTAGTGCAG | 8110 fluorescence intensity (a.u.) |
| ACATGTTGTAGTCTATTTATATTTATCACTAATGTAGAAACGGAGTCACCTAGTGCAG | 8550 fluorescence intensity (a.u.) |
| AATAATTTTCTTTTGTCACACTGTTTCTTCTCTAATCTATCGGAGTCACCTAGTGCAG | 12200 fluorescence intensity (a.u.) |
| TCTAGACATTACGGTCCCCATCGGTTGCCCACTTCTTATTCGGAGTCACCTAGTGCAG | 9160 fluorescence intensity (a.u.) |
| CTCGCCGGATCCCTCAAGTTCCATTGTTCCCTTTATAACCCGGAGTCACCTAGTGCAG | 8180 fluorescence intensity (a.u.) |
| CTTCTTAATAATTAGATAGTATTCACCATCAAGCTTTGACCGGAGTCACCTAGTGCAG | 8120 fluorescence intensity (a.u.) |
| CGGGAGGATGCGGCACAGGGGTTGTTGACCGTGCGTCGCTCGGAGTCACCTAGTGCAG | 8280 fluorescence intensity (a.u.) |
| GCACCATTGACTTGTCGCATAACGTTTGACCATTTATCTTCGGAGTCACCTAGTGCAG | 15600 fluorescence intensity (a.u.) |
| GTCCCTGGCCCCATATACTGCACATGACCCTTGACAAACGCGGAGTCACCTAGTGCAG | 10200 fluorescence intensity (a.u.) |
| GATCCAGTGCGTCCTCTCCTAGATGTTGTTGCCAAAATTTCGGAGTCACCTAGTGCAG | 8050 fluorescence intensity (a.u.) |
| CACTAAGTCCGTTCCCATGCCCATTTCTCCCTGCATATTACGGAGTCACCTAGTGCAG | 9680 fluorescence intensity (a.u.) |
